# From PubChem BioAssay AID540276 (National Center for Advancing Translational Sciences (NCATS), 2011)
# Hit rate of the full screen: of about 300,000 compounds, about 5,400 (1.8%) were called active. Inconclusive means that the source gave no clear call. Such entries were picked first, then a sample of the others. Calls follow the shape of the full dose curve; tested in HEK293 cells. Potencies of inconclusive entries are doubtful fits and often do not repeat.
# Experiment: qHTS for inhibitors of binding or entry into cells for Marburg Virus
# Conditions: Marburg virus pseudotyped entry inhibition, cell reporter; activity change, negative = inhibition: at 37.8 µM (top of the series) unless noted
# % is scaled to controls: 0 for no effect and ±100 for the full control effect; potency is read from the fitted curve at half-maximal effect.
SMILES,Potency,"activity change, negative = inhibition"
NC(=O)c1cc2cc(Cc3ccccc3Cl)ccc2oc1=O,"inconclusive: 14.1 µM [inhibitor, single point]",–
CCN1c2ccccc2-c2nc3ccccc3n2C1c1cccs1 (centres undefined),"inconclusive: 29.1 µM [inhibitor, single point]",–
O=[N+]([O-])c1cc(S(=O)(=O)N2CCCCCC2)ccc1Cl,"inconclusive: 6.31 µM [inhibitor, full curve, poor fit]",–
O=C(CSc1ccc(-c2ccccn2)nn1)N1CCCC1,"inconclusive: 14.1 µM [activator, single point]",–
CCOC(=O)c1cc2c(=O)n3ccccc3nc2n(Cc2ccco2)c1=NC(=O)c1cccc(OC)c1,"inconclusive: 10 µM [inhibitor, partial curve, poor fit]",–
Cc1cccc(NC(=S)NNC(=O)c2sccc2C)c1,"inconclusive: 16.4 µM [activator, partial curve, poor fit]",–
CS(=O)(=O)c1ccc2nc(NC(=O)c3ccc(Cl)nc3)sc2c1,"inconclusive: 22.4 µM [inhibitor, single point]",–
Cc1ccccc1Cn1nc(C)c(NC(=O)/C=C/c2cnn(C)c2)c1C,"inconclusive: 3.16 µM [inhibitor, single point]",–
CC(C)OCCCNC1=C(Cl)C(=O)c2ccccc2C1=O,"inconclusive: 1 µM [activator, partial curve, poor fit]",–
Cc1ccccc1C1CC(=O)Nc2ccc3ccccc3c21 (centres undefined),"inconclusive: 7.08 µM [inhibitor, full curve, poor fit]",–
CCN(CC)C(=O)c1sc(NC(=O)c2c(OC)cccc2OC)c(C#N)c1C,"inconclusive: 6.31 µM [inhibitor, single point]",–
O=C(CCl)Nc1sccc1C(=O)c1ccccc1,–,inactive: 9.32% [at 46.1 µM]
Cc1cccc(C(=O)NCCc2ccccc2)c1,"inconclusive: 12.6 µM [inhibitor, partial curve, poor fit]",–
C=CCN1C(=O)CC(C(=O)NC)SC1=Nc1ccc(C(=O)OCC)cc1 (centres undefined),–,inactive: 8.71%
CC(C)c1ccc(NC(=O)COc2nnc(-c3cccs3)c(-c3cccs3)n2)cc1,"inconclusive: 0.92 µM [inhibitor, full curve, poor fit]",–
CCOC(=O)CSc1nc2c(c(=O)[nH]c(=O)n2C)n1CCc1ccccc1,"inconclusive: 6.31 µM [activator, single point]",–
COc1cc2ccccc2cc1C(=O)Nc1ccc(Cc2ccncc2)cc1,"inconclusive: 29.1 µM [inhibitor, single point]",–
CCOc1cc(NS(=O)(=O)c2ccc(OC)cc2)c(OCC)cc1NC(=O)c1ccco1,"inconclusive: 20.6 µM [inhibitor, partial curve]",–
CCCCCC(=O)N1C[C@H](O)[C@@H](n2cc(COC(=O)c3ccccc3)nn2)C[C@H]1c1ccc(OC)cc1,"inconclusive: 1.58 µM [inhibitor, full curve, poor fit]",–
O=C(CC(Nc1ccc(Cl)cc1)C(=O)O)c1ccccc1 (centres undefined),"inconclusive: 2.51 µM [inhibitor, full curve, poor fit]",–
COCCCNC(=O)c1cc(C(=O)c2c(-c3c(Cl)cccc3Cl)noc2C)c[nH]1,"inconclusive: 35.5 µM [inhibitor, single point]",–
COC(=O)c1ccccc1NC(=O)CN(CCc1ccccc1)S(C)(=O)=O,"inconclusive: 0.058 µM [inhibitor, partial curve, poor fit]",–
CCN(CC(=O)Nc1c(F)cccc1F)C(=O)/C=C/c1ccc2c(c1)OCO2,"inconclusive: 1.26 µM [activator, single point]",–

SMILES,Potency,"activity change, negative = inhibition"
Cc1ccc2cc(C=O)c(N3CCOCC3)nc2c1C,–,inactive: 9.48%
COc1ccc(N(C(=O)c2ccco2)C(C(=O)NC2CCCC2)c2cccs2)cc1 (centres undefined),"inconclusive: 0.1 µM [inhibitor, full curve, poor fit]",–
COc1cccc(/C=N/NC(=O)Cn2nc(C)c([N+](=O)[O-])c2C)c1O,"inconclusive: 8.91 µM [inhibitor, partial curve]",–
COc1ccc(NC(=O)c2ccc3c(c2)OCO3)cc1Cl,"inconclusive: 10 µM [inhibitor, partial curve, poor fit]",–
Cc1cccc(C(=O)Nc2cccc(-c3ccc4nncn4n3)c2)c1,"inconclusive: 7.08 µM [inhibitor, partial curve, poor fit]",–
Cc1ccc(/C=N/Nc2cccc(C(=O)O)c2)s1,active: 1.12 µM,–
O=C(NC(=S)Nc1cccnc1)c1ccccc1,"inconclusive: 0.501 µM [activator, full curve, poor fit]",–
CC(=O)N1CCN(CC(=O)c2ccc(Br)cc2)CC1,–,inactive: 7.69%
O/N=C(\CN1CCCCC1)c1ccccc1,"inconclusive: 3.98 µM [inhibitor, partial curve, poor fit]",–
CCOC(=O)C1(CCOc2ccccc2)CCN(C(=O)c2ccc(-n3cccn3)cc2)CC1,"inconclusive: 20 µM [inhibitor, partial curve, poor fit]",–
O=C1OC(NC(=O)c2ccccc2)C(n2cc(CO)nn2)=C1Cl (centres undefined),"inconclusive: 6.51 µM [inhibitor, single point]",–
CCOc1cc2c(cc1OCC)-n1cccc1C(c1c(O)cccc1OC)NC2 (centres undefined),"inconclusive: 11.2 µM [inhibitor, partial curve, poor fit]",–
O=C(NCc1ccc2c(c1)OCO2)c1cc2ccccc2o1,–,inactive: 6.95%
CN(C)c1ccc(/C=N/NC(=O)c2ccc3nc[nH]c3c2)cc1,–,inactive: 10.5% [at 46.1 µM]
Oc1ccc(N2CCN(C(c3cccnc3)c3nnnn3Cc3ccccc3)CC2)cc1 (centres undefined),inactive,–
COc1cc(-c2cc(C(=O)NCCc3ccc(S(N)(=O)=O)cc3)c3ccccc3n2)cc(OC)c1OC,"inconclusive: 35.5 µM [inhibitor, single point]",–
CCOC(=O)/C=C1\SCC(=O)N1CC(=O)NCc1ccc(OC)c(OC)c1,–,inactive: 10.7% [at 46.1 µM]
COc1ccc(-c2nc3ccccc3c(=O)n2CCOc2cccc(C)c2C)cc1,–,inactive: -19.2%
O=C(CSc1ccccc1)NCC1(N2CCCCC2)CCCCC1,"inconclusive: 17.8 µM [inhibitor, partial curve, poor fit]",–
O=S(=O)(Cc1ccccc1)NCCc1cccc(Cl)c1,–,inactive: 3% [at 46.1 µM]
CCc1ccc(Nc2ncccc2C#N)cc1,"inconclusive: 4.47 µM [activator, partial curve]",–
COc1ccc(/C=C(/NC(=O)c2cccs2)C(=O)N2CCOCC2)cc1OC,"inconclusive: 1.58 µM [inhibitor, single point]",–
COC(=O)c1ccccc1NC(=O)NC1CCN(Cc2ccccc2)CC1,"inconclusive: 0.073 µM [inhibitor, full curve]",–

# Laid out differently: results already given.
SMILES	Potency	activity change, negative = inhibition
CCN(CC)C(=O)c1sc(NC(=O)c2c(OC)cccc2OC)c(C#N)c1C	inconclusive: 6.31 µM [inhibitor, single point]	–
CC(C)c1ccc(NC(=O)COc2nnc(-c3cccs3)c(-c3cccs3)n2)cc1	inconclusive: 0.92 µM [inhibitor, full curve, poor fit]	–
CCOc1cc(NS(=O)(=O)c2ccc(OC)cc2)c(OCC)cc1NC(=O)c1ccco1	inconclusive: 20.6 µM [inhibitor, partial curve]	–
COCCCNC(=O)c1cc(C(=O)c2c(-c3c(Cl)cccc3Cl)noc2C)c[nH]1	inconclusive: 35.5 µM [inhibitor, single point]	–
COC(=O)c1ccccc1NC(=O)CN(CCc1ccccc1)S(C)(=O)=O	inconclusive: 0.058 µM [inhibitor, partial curve, poor fit]	–
COc1ccc(NC(=O)c2ccc3c(c2)OCO3)cc1Cl	inconclusive: 10 µM [inhibitor, partial curve, poor fit]	–
Cc1ccc(/C=N/Nc2cccc(C(=O)O)c2)s1	active: 1.12 µM	–
CC(=O)N1CCN(CC(=O)c2ccc(Br)cc2)CC1	–	inactive: 7.69%
O/N=C(\CN1CCCCC1)c1ccccc1	inconclusive: 3.98 µM [inhibitor, partial curve, poor fit]	–
CCOC(=O)C1(CCOc2ccccc2)CCN(C(=O)c2ccc(-n3cccn3)cc2)CC1	inconclusive: 20 µM [inhibitor, partial curve, poor fit]	–
O=C1OC(NC(=O)c2ccccc2)C(n2cc(CO)nn2)=C1Cl (centres undefined)	inconclusive: 6.51 µM [inhibitor, single point]	–
CCOc1cc2c(cc1OCC)-n1cccc1C(c1c(O)cccc1OC)NC2 (centres undefined)	inconclusive: 11.2 µM [inhibitor, partial curve, poor fit]	–
Oc1ccc(N2CCN(C(c3cccnc3)c3nnnn3Cc3ccccc3)CC2)cc1 (centres undefined)	inactive	–
O=C(CSc1ccccc1)NCC1(N2CCCCC2)CCCCC1	inconclusive: 17.8 µM [inhibitor, partial curve, poor fit]	–
O=S(=O)(Cc1ccccc1)NCCc1cccc(Cl)c1	–	inactive: 3% [at 46.1 µM]

# (next part)

SMILES,Potency,"activity change, negative = inhibition"
Cc1cc(Br)ccc1OCC(=O)N1CCCCCC1,"inconclusive: 14.1 µM [activator, partial curve, poor fit]",–
CCN(CC(=O)NCc1ccc(F)cc1)C(=O)/C=C/c1cc(OC)ccc1OC,"inconclusive: 31.6 µM [inhibitor, partial curve, poor fit]",–
Cc1ccc(Cl)cc1N1CCN(C(=O)c2ccc(CS(=O)(=O)c3ccccc3C)o2)CC1,"inconclusive: 12.6 µM [inhibitor, single point]",–
CC(C)CC1NC(=O)N(CC(=O)Nc2ccc3c(c2)CCC3)C1=O (centres undefined),"inconclusive: 11.2 µM [inhibitor, partial curve, poor fit]",–
OC1CSc2nc3ccccc3n2C1 (centres undefined),"inconclusive: 3.16 µM [inhibitor, partial curve, poor fit]",–
O=C(CN1C(=O)NC(c2ccccc2)(c2ccccc2)C1=O)NCCNCCO,"inconclusive: 35.5 µM [activator, partial curve, poor fit]",–
Cc1cc(C)cc(NC(=O)CSc2ccccc2)c1,"inconclusive: 3.55 µM [activator, single point]",–
Cc1cc(NC(=O)CSc2ccccn2)no1,–,inactive: 12.4%
Cc1ccc(NC(=O)Cn2c(=O)n(CC3CCCO3)c(=O)c3ccccc32)cc1 (centres undefined),–,inactive: 6.43% [at 46.1 µM]
COc1cc(/C=C(\C#N)c2nc3ccccc3[nH]2)cc(OC)c1O,–,inactive: -20.2% [at 46.1 µM]
CC1=C(C(=O)OCC2CCCO2)C(c2ccccc2)NC(=O)N1 (centres undefined),"inconclusive: 20.6 µM [activator, single point]",–
Nc1ccc(-c2nc3ccc(-c4nc5ccccc5o4)cc3[nH]2)cc1,active: 7.08 µM,–
CCOc1ccccc1NC(=O)C1=C(C)NC(=S)NC1c1cccs1 (centres undefined),"inconclusive: 6.31 µM [inhibitor, single point]",–
OC(COc1ccc2cc(Br)ccc2c1)CN1CCCC1 (centres undefined),active: 8.2 µM,–
COc1ccc(Br)cc1CN1CCN(C(=O)Cc2ccccc2)CC1,–,inactive: -0.0024%
CC(=O)Oc1ccc(-c2csc(Nc3cccc(C)n3)n2)cc1,"inconclusive: 1 µM [activator, partial curve, poor fit]",–
COc1ccc(/C(C)=N/Nc2ccc(F)cc2F)c(O)c1,–,inactive: 14.5%
O=[N+]([O-])c1ccc(Nc2nc(N/N=C\c3ccc4c(c3)OCO4)nc(N3CCCCC3)n2)cc1,"inconclusive: 6.51 µM [inhibitor, partial curve, poor fit]",–
COc1ccc(-c2csc(N)n2)cc1,"inconclusive: 5.62 µM [activator, single point]",–
CC1(C)COC(c2ccc3c(c2)OCO3)OC1,–,inactive: 10.8% [at 46.1 µM]
Oc1c(C=NCc2ccccc2)sc2ccccc12,–,inactive: 2.27% [at 46.1 µM]
CN1CCN(C(=S)c2ccc(-c3cccc(Cl)c3Cl)o2)CC1,"inconclusive: 29.1 µM [inhibitor, single point]",–
COc1ccc(C(=O)NC2(C(F)(F)F)C(=O)Nc3c2c(=O)[nH]c(=O)n3CCc2ccc(OC)c(OC)c2)cc1 (centres undefined),"inconclusive: 35.5 µM [activator, single point]",–
